# According to US20150126546A1, “Treatment of Cognitive Disorders with Certain Alpha-7 Nicotinic Acid Receptors in Combination with Acetylcholinesterase Inhibitors” (Forum Pharmaceuticals, Inc., priority 2009, published 2015):
# Counter-ions that a name gives are not always drawn.
# System: 5-month-old male Wistar rats
# Assay: Object recognition task after scopolamine treatment
# Assay type: in vivo
# Details: scopolamine 0.1 mg/kg i.p., donepezil 0.1 mg/kg p.o., EVP-6124 0.03 mg/kg p.o., all 30 min before T1, n = 23; for Mean values (±SEM) of total exploration time during the second trial (e2): 1 h delay
# Text: The object recognition task allows the assessment of consolidation of (object) information into memory (Ennaceur and Delacour, 1988; Prickaerts et al., 1997). In this task a rat is given two trials. In the first trial the rat is put into an arena in which two identical objects are placed. Usually, a rate will inspect the two objects for a certain amount of time. After a certain delay, the rat is given a second trial. In this trial the rat is again placed in the same arena but one of the objects has been replaced by a novel object. Similar to the first trial the rat again explores the two objects. The amount of time exploring each object is recorded in order to determine whether the rat spent a different amount of time exploring the two objects. On basis of this scoring the memory performance can be determined.
# All drugs were given 30 minutes before the first trial.
# All experimental procedures were approved by the local ethical committee of the Maastricht University for animal experiments and met governmental guidelines. Twenty-four 5-month-old male Wistar rats (Harlan, The Netherlands) were used (average body weights: 465 g). […] The animals were individually housed in standard type 3 Makrolon cages on sawdust bedding in an air-conditioned room (about 20° C.). They were kept under a 12/12-hour light/dark cycle (lights on from 19.00 to 7.00 h) and had free access to food and water. Rats were housed in the same room as where the animals were tested. A radio, which was playing softly, provided background noise in the room. All testing was done between 9.00 and maximally 18.00 h.
# EVP-6124 was dissolved in H2O. The solution was prepared daily and tested at a dose of 0.03 mg/kg p.o. (injection volume 2 ml/kg). […] Donepezil was dissolved in saline. The solution was prepared daily and tested at a dose of 0.1 mg/kg p.o. (injection volume 2 ml/kg). Administration was always 30 min before trial 1 immediately after (R)-7-chloro-N-(quinuclidin-3-yl)benzo[b]thiophene-2-carboxamide.
# Subsequently donepezil, (R)-7-chloro-N-(quinuclidin-3-yl)benzo[b]thiophene-2-carboxamide and the combination of both were tested (n=8 per condition per day of testing). All rats were treated once with each dose condition. […] The experimentator was unaware of the condition/drugs being tested.
# The object recognition test was performed as described elsewhere (Ennaceur and Delacour, 1988). The apparatus consisted of a circular arena, 83 cm in diameter. Half of the 40 cm high wall was made of gray polyvinyl chloride, the other half of transparent polyvinyl chloride. The light intensity was equal in the different parts of the apparatus. Two objects were placed in a symmetrical position about 10 cm away from the gray wall. Each object was available in triplicate. The objects were: 1) a cone consisting of a gray polyvinyl chloride base (maximal diameter 18 cm) with a collar on top made of brass (total height 16 cm), 2) a standard 1 l brown transparent glass bottle (diameter 10 cm, height 22 cm) filled with water, 3) a massive metal cube (10.0×5.0×7.5 cm) with two holes (diameter 1.9 cm), and 4) a massive aluminum cube with a tapering top (13.0×8.0×8.0 cm). A rat could not displace the objects. Fluorescent red tubes and a light bulb provided a constant illumination of about 20 lux on the floor of the apparatus.
# A testing session comprised two trials. The duration of each trial was 3 min. During the first trial (T1) the apparatus contained two identical objects (samples). […]
SMILES,Mean values (±SEM) of total exploration time during the second trial (e2),Mean values (±SEM) of total exploration time during the first trial (e1)
"O=C(N[C@H]1CN2CCC1CC2)c1cc2cccc(Cl)c2s1 [EVP-6124, (R)-7-chloro-N-(quinuclidin-3-yl)benzo[b]thiophene-2-carboxamide]",22.98 (1.67) s,21.08 (1.46) s
"COc1cc2c(cc1OC)C(=O)C(CC1CCN(Cc3ccccc3)CC1)C2 (centres unmarked) [donepezil, 1-benyzl-4-[(5,6-dimethoxy-1-indanon)-2-yl]methylpiperidine monohydrochloride]",21.38 (1.45) s,20.80 (1.75) s
CN1[C@@H]2C[C@@H](OC(=O)[C@H](CO)c3ccccc3)C[C@H]1[C@@H]1O[C@@H]12 [scopolamine],21.65 (1.76) s,
